Results: publication PMC10937113, ““Mix and match” auto-assembly of glycosyltransferase domains delivers biocatalysts with improved substrate promiscuity” (The Journal of Biological Chemistry, 2024)

B1: CB1, C-terminal (sugar donor-binding) domain of Arabidopsis thaliana UGT74B1 (domain or fragment, UniProt O48676 254-460)
chain: GASLLKPISKECMEWLETKQAQSVAFVSFGSFGILFEKQLAEVAIALQESDLNFLWVIKEAHIAKLPEGFVESTKDRALLVSWCNQLEVLAHESIGCFLTHCGWNSTLEGLSLGVPMVGVPQWSDQMNDAKFVEEVWKVGYRAKEEAGEVIVKSEELVRCLKGVMEGESSVKIRESSKKWKDLAVKAMSEGGSSDRSINEFIESLGK
B2: CC1, C-terminal (sugar donor-binding) domain of Arabidopsis thaliana UGT74C1 (domain or fragment, UniProt Q9SKC1 250-457)
chain: ELENSKTEPDESVLKWLGNRPAKSVVYVAFGTLVALSEKQMKEIAMAISQTGYHFLWSVRESERSKLPSGFIEEAEEKDSGLVAKWVPQLEVLAHESIGCFVSHCGWNSTLEALCLGVPMVGVPQWTDQPTNAKFIEDVWKIGVRVRTDGEGLSSKEEIARCIVEVMEGERGKEIRKNVEKLKVLAREAISEGGSSDKKIDEFVALLT

Tests used:
[1] = target: NB1, N-terminal (acceptor-binding) domain of Arabidopsis thaliana UGT74B1 (Arabidopsis thaliana) (UniProt O48676); assay: SEC; IMAC-purified dimer on Superdex 200 Increase 10/300 GL, 200 mM NaCl, 50 mM Tris-HCl pH 8.0; both purified
[2] = target: NB1, N-terminal (acceptor-binding) domain of Arabidopsis thaliana UGT74B1 (Arabidopsis thaliana) (UniProt O48676); assay: pull-down; N-terminal His-tagged N-domain and untagged C-domain co-expressed from two plasmids in E. coli BL21 (DE3); clarified lysate on His-Trap / Ni-NTA (IMAC), imidazole elution; eluate analysed by SDS-PAGE and peptide mass fingerprinting

| Binder | binding [1] | binding [2] |
| --- | --- | --- |
| B1 | binds | binds |
| B2 | binds | binds |

No constants are given. Whether binding was seen depends on the method and setting. Binding can be weak; no strength is given. For some of these results: Binding seen in cells or lysates may run through a third protein.
